This note sets out measurements from article PMC11609304.

The chains behind the UniProt entries cited, without tags or fusion partners.
UniProt P51784: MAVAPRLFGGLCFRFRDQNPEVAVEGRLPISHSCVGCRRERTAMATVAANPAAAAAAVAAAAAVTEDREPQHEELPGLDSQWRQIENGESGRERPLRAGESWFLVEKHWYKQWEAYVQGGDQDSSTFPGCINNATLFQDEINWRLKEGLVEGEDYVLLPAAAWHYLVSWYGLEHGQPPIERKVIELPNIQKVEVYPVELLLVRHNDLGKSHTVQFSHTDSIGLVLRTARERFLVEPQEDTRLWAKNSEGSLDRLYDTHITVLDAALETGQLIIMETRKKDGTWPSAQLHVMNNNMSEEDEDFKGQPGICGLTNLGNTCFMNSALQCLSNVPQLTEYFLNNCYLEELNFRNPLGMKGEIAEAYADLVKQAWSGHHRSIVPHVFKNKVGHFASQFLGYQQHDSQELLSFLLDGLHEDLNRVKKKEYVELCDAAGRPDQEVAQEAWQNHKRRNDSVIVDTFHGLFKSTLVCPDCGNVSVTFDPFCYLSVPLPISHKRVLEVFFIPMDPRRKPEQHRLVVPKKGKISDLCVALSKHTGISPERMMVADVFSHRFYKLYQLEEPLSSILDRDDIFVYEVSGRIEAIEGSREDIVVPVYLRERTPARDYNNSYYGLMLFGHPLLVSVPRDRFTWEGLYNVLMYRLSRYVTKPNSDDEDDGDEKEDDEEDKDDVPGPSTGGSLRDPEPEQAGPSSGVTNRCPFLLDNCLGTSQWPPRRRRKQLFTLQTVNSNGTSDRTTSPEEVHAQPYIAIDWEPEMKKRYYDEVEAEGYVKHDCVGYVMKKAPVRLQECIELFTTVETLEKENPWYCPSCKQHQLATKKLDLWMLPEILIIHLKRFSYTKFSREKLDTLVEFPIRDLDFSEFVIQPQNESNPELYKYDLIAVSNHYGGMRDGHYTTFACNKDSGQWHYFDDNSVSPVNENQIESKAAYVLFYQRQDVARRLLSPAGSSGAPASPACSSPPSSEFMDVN

No constants are given. Whether binding was seen depends on the method and setting. In cells and extracts the contact can be indirect. Some entries that bind do so weakly or less than the wild type. For some assays here: Sequences can lack the tags named with a protein.

For assay [1], the target named is T1, Nuclear factor erythroid 2-related factor 2 (Nrf2), endogenous (human (endogenous in HCT116/DLD1)) (UniProt Q16236).
T1 sequence: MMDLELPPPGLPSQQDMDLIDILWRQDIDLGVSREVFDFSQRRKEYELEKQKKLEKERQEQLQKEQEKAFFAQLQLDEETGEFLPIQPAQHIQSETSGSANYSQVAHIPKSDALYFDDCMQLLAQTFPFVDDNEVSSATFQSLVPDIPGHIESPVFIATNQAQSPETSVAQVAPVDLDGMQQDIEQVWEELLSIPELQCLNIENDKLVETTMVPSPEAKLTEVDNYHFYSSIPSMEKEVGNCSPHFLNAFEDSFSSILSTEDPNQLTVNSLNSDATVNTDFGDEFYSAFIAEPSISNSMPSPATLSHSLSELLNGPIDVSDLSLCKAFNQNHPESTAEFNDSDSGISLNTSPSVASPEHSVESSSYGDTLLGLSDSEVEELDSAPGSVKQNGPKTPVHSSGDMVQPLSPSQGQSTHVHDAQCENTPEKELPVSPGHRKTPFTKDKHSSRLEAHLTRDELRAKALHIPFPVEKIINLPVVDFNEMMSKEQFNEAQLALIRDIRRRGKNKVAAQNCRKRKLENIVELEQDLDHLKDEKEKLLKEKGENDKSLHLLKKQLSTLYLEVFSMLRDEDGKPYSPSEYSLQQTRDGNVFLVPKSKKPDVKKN
As to the kind of experiment: co-IP; endogenous proteins in HCT116/DLD1 lysate; primary antibody (USP11, Nrf2 or IgG) at 4 °C overnight, protein A/G PLUS-Agarose beads 3 h, Western blot. Background: Immunoblotting shows a protein as a band on a membrane.

In assay [2] the target is T2, His-Nrf2 (UniProt Q16236).
T2 sequence: T1 sequence
As to the kind of experiment: co-IP; Flag-USP11 and His-Nrf2 plasmids and empty vectors transfected alone or cotransfected into HEK293T; Flag-tag or His-tag antibody at 4 °C overnight, protein A/G PLUS-Agarose beads 3 h, Western blot.

As for “USP11 (ubiquitin-specific protease 11), endogenous (from UniProt P51784 1-963) (enzyme)”, in assay [1], the binding entry is given as “binds”. Turning to “Flag-USP11 (from UniProt P51784 1-963) (enzyme)”, in assay [2], the binding result is “binds”.
